Measurements reported in PubChem BioAssay AID1259254 (NCATS, 2017).
The whole screen tested about 59,000 reagents; this is a part drawn at random. In the full data, about 1,550 (2.6%) are marked active. 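G2 share is only a proxy for re-replication; each gene was hit by three separate siRNAs, and active genes were retested.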 Unmarked entries are inactive. The numbers tell different reagents against one gene apart. Further read-outs or replicates are left out here. Not given: the amount of reagent.

Purpose: 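Genome-wide screen for genes that prevent DNA re-replication in cancer cells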 (primary screen)
System: human HCT116 colorectal cancer cells
Reagents: single siRNA against human genes
Timing: 3 days
Measured: 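Nuclei stained with Hoechst and imaged; cell-cycle phase assigned by DNA content; G2 share scaled per plate, non-targeting siRNA 0%, GMNN siRNA 100%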
Reading the numbers: G2 robust z-score: higher = more G2 cells, more excess DNA replication
Call rule: 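Active siRNAs have a G2 robust z of 5 or more median absolute deviations over the median, which in these data means about 38% or higher of GMNN control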

What is on record for MOK (MOK protein kinase) #1?
G2 robust z-score: -1.03

Which result is listed for MOK (MOK protein kinase) #2?
G2 robust z-score: 2.52

What did the screen give for MOK (MOK protein kinase) #3?
G2 robust z-score: -1.07

What is on record for SH2D1B (SH2 domain containing 1B) #1?
G2 robust z-score: -0.77

What is on record for SH2D1B (SH2 domain containing 1B) #2?
G2 robust z-score: 0.544

With SH2D1B (SH2 domain containing 1B) #3, what was measured?
G2 robust z-score: -0.214

What did the screen give for CERK (ceramide kinase) #1?
G2 robust z-score: 1.15

Which result is listed for CERK (ceramide kinase) #2?
G2 robust z-score: -0.344

What did the screen give for CERK (ceramide kinase) #3?
G2 robust z-score: -0.631

For SCG2 (secretogranin II) #1, how do the results read?
G2 robust z-score: 1.02

With SCG2 (secretogranin II) #2, what was measured?
G2 robust z-score: 0.13

For SCG2 (secretogranin II) #3, how do the results read?
G2 robust z-score: -1.14
